Reference: article PMC6238587
Residue numbers refer to the chain shown, from its start. No constants are given. Whether binding was seen depends on the method and setting. Binding seen in cells or lysates may run through a third protein. Some entries that bind do so weakly or less than the wild type. For some assays here: Sequences can lack the tags named with a protein.

Sequences of proteins named here, by UniProt entry; tags and fusion partners are left off. Residues count along the entry.
UniProt P07237, residues 18-508: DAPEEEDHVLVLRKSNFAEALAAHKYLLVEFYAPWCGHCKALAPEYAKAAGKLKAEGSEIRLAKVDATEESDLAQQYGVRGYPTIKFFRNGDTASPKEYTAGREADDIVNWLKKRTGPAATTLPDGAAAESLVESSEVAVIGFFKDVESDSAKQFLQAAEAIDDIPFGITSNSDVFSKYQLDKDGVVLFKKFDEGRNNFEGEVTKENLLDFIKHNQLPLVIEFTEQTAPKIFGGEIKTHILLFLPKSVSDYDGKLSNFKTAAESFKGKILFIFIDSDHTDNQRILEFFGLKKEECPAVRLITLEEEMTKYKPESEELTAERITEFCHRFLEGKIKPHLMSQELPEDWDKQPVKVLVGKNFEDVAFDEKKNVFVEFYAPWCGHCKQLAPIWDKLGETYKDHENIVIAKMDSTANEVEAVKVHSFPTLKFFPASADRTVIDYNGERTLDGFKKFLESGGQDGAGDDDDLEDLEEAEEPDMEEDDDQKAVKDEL

Columns and labels:
Test in all cases: pull-down; small-scale: His-tagged Ero1 variant co-expressed with PDI in E. coli; cleared lysate on HisPur cobalt agarose, wash 50 mM sodium phosphate pH 7.3, 300 mM NaCl, 15 mM imidazole; reducing SDS–PAGE of eluates
[1] = target: T1, human Ero1β C90/95A, N-terminal His tag (human) (UniProt Q86YB8)
T1 sequence: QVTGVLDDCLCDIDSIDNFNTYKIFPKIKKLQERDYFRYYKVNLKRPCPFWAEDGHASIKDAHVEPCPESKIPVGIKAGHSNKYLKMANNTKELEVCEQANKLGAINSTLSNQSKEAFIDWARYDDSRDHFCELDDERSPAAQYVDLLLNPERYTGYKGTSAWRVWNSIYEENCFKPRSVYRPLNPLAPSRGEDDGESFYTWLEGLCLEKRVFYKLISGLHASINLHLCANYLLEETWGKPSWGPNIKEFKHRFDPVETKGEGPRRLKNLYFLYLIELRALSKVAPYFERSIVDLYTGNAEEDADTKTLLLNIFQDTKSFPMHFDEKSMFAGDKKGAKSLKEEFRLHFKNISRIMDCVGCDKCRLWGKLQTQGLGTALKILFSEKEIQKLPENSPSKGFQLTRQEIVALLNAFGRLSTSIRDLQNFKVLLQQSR

[2] = target: T2, human Ero1β C95/100A, N-terminal His tag (human) (UniProt Q86YB8)
T2 sequence: T1 sequence with A57C, C67A

[3] = target: human Ero1α C104A/C131A, N-terminal His tag (human) (UniProt Q96HE7)
[4] = target: T3, human Ero1α C99A/C104A, N-terminal His tag (human) (UniProt Q96HE7)
T3 sequence: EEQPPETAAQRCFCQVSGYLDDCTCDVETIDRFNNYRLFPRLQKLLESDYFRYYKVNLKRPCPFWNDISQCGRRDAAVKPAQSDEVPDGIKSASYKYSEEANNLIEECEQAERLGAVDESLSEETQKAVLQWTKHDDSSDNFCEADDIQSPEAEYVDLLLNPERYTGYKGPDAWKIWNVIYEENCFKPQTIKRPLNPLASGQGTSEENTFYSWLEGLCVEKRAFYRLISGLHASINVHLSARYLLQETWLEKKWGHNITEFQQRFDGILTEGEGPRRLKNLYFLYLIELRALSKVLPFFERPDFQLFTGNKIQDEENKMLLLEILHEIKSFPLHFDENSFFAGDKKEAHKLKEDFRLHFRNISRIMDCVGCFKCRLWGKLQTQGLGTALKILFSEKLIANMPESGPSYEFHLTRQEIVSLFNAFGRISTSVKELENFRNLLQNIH

[5] = target: T4, human Ero1β with all four outer active site and regulatory cysteines mutated (C90, C95, C100, C130 to alanine), N-terminal His tag (human) (UniProt Q86YB8)
T4 sequence: T1 sequence with C67A, C97A

[6] = target: human Ero1β C100/130A, N-terminal His tag (human) (UniProt Q86YB8)
[7] = target: T5, human Ero1α C94A/C99A/C104A/C131A, N-terminal His tag (human) (UniProt Q96HE7)
T5 sequence: T3 sequence with C71A, C108A

[8] = target: T6, human Ero1α C94A/C99A, N-terminal His tag (human) (UniProt Q96HE7)
T6 sequence: T3 sequence with C71A, A81C

binding [1]: binds | binding [2]: binds | binding [3]: binds | binding [4]: binds | binding [5]: binds | binding [6]: binds | binding [7]: binds | binding [8]: binds
Substance: human protein disulfide isomerase (PDI), wild type, co-expressed CyDisCo component (from UniProt P07237 18-508) (enzyme)
